The values that follow come from publication PMC5996148.

This is one part of the list. For some of these results: The source does not settle which construct or isoform was used.

Common to all, as to test: protein microarray (ProtoArray v5.0), streptavidin-Alexa Fluor 647
Holding throughout (conditions): 3'-biotin; 20 mM Tris (pH 7.5), 5 mM MgCl2, 100 mM KCl, 0.1% Tween-20, A/T-rich and random oligonucleotide blockers; temperature not stated; high values mean tight binding

One assay concerns the target T1, STAP1 (UniProt Q9ULZ2).
T1 sequence: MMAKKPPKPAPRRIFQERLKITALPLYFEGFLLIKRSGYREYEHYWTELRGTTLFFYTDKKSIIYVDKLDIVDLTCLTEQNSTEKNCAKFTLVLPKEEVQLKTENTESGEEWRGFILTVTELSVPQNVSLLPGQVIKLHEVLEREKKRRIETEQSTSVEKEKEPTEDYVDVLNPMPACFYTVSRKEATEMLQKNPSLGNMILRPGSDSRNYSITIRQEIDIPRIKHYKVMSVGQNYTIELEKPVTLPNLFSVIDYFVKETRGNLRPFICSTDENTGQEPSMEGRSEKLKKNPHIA

The next assay deals with STCH (human).
The test system of a further assay is STEAP4 (human).
For another assay, the system named is STK10 (human).
For another assay, the system named is STK16 (human).
The test system of the next assay is STK40 (human).
The next assay deals with STON1 (human).
In the next assay the test system is STX18 (human).
The test system of a further assay is STXBP2 (human).
Another assay deals with STYX (human).

Turning to “GGTGACAGGGGTATGGGGAGGGG [G4-2 biotinylated (Ct1)]”, the binding signal in the assay with STAP1 was 5.96 z-score; in the assay with STCH (human), -0.378 z-score; in the assay on STEAP4 (human), -0.359 z-score; with STK10 (human), -0.366 z-score; with STK16 (human), -0.372 z-score; in the assay with STK40 (human), -0.377 z-score. Also, the binding signal in the assay on STON1 (human) is -0.382 z-score; with STX18 (human), -0.386 z-score; in the assay on STXBP2 (human), -0.371 z-score; with STYX (human), -0.375 z-score.
